Source: patent publication US20140030218
Construct, isoform or probe ends are uncertain for at least one entry. A negative result means that nothing was seen under these conditions.

Sequences of proteins named here, by UniProt entry; tags and fusion partners are left off. Residues count along the entry.
UniProt Q13568, 1-131: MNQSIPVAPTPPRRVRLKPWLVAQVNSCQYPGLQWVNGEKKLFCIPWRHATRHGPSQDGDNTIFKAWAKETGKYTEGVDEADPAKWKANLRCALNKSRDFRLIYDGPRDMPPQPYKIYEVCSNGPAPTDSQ

Biological target: IRF5 DBD (aa 1-131) (Homo sapiens) (UniProt Q13568)
Experiment: EMSA
Settings: 50 ng IRF5 DBD, purified recombinant protein, protein details: expressed from pET21d in bacteria, label: 32P (dCTP fill-in)

Sequence	binding result (ISRE 1/2 said to interact in vitro)	binding result
AGCTCCGGGTCAGAATGAAAGAAGAAGG / AGCTCCTTCTTCTTTCATTCTGACCCGGT [TNF ISRE2]	binds	
AGCTGGGCATGGGAATTTCCAACTCT / AGCTGAGTTGGAAATTCCCATGCCC [TNF kB4]		no binding
